Data as given in PubChem BioAssay AID1224828 (NIAID, 2016).
Test: 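Regulators linking TLR4 signalling to p65 nuclear translocation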 (primary screen). System: mouse RAW264.7 G9 macrophage reporter cells (GFP-p65, Tnf promoter-mCherry). Reagent: siRNA pool against mouse genes, 100 nM. Duration: 2 days siRNA transfection, then 40 min LPS before fixation. Treatment: LPS (Salmonella minnesota R595) at 10 ng/ml. Measured: 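Imaged p65 nuclear translocation ratio, normalised to the plate median, converted to robust z-scores and averaged across two replicates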. Reading the numbers: p65 translocation robust z-score: higher = more nuclear NF-kappaB p65 after LPS than the plate median; nuclear/cytoplasmic p65 ratio: higher = more nuclear NF-kappaB p65. Active means: 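Called active when z exceeds 3.3 or falls under -1.56 (median of Tlr4 controls), giving activity score of at least 50; no calls for control wells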. Meaning of the calls: active = hit (p65 shift raised or lowered); inactive = no clear change.
The deposit covers about 17,000 reagents; shown is a part drawn at random. Over the whole deposit, 762 (4.5%) were called active. 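Active calls include both raised and lowered p65 entry, mostly lowered; wells with fewer than 50 cells lack a z-score.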 Raw values are not corrected between plates. Entries without a mark were called inactive. Reagent sequences are not shown.

gene	p65 translocation robust z-score	nuclear/cytoplasmic p65 ratio, rep 1	nuclear/cytoplasmic p65 ratio, rep 2	low cell count flag
Mex3b (mex3 RNA binding family member B)		1.22	1.12	fewer than 50 cells per well; well left out of scoring
Elavl1 (ELAV like RNA binding protein 1)		1.18	1.16	fewer than 50 cells per well; well left out of scoring
Dclk1 (doublecortin-like kinase 1)	-0.84	1.52	1.31	enough cells to score
Abhd14b (abhydrolase domain containing 14b)	0.82	1.63	1.39	enough cells to score
Bambi (BMP and activin membrane-bound inhibitor)	-1.67 (active)	1.32	1.57	enough cells to score
Ntrk1 (neurotrophic tyrosine kinase, receptor, type 1)	0.77	1.87	1.42	enough cells to score
Lrrc45 (leucine rich repeat containing 45)	0.13	1.56	1.9	enough cells to score
Lrrc72 (leucine rich repeat containing 72)	-0.15	1.34	1.41	enough cells to score
Or8k27 (olfactory receptor family 8 subfamily K member 27)	0.49	1.88	1.52	enough cells to score
Or51e2 (olfactory receptor family 51 subfamily E member 2)	2.94	1.99	1.95	enough cells to score
Dlg2 (discs large MAGUK scaffold protein 2)	0.82	1.87	1.45	enough cells to score
AI987944 (expressed sequence AI987944)	-1.46	1.37	1.57	enough cells to score
Ndufa7 (NADH:ubiquinone oxidoreductase subunit A7)	-0.95	1.64	1.44	enough cells to score
Sfn (stratifin)	0.4	1.64	1.58	enough cells to score
Cox6c (cytochrome c oxidase subunit 6C)	0.23	1.6	1.84	enough cells to score
Igsf3 (immunoglobulin superfamily, member 3)	-1.25	1.36	1.18	enough cells to score
Fam78b (family with sequence similarity 78, member B)	0.33	1.47	1.78	enough cells to score
Plch2 (phospholipase C, eta 2)		1.16	1.31	fewer than 50 cells per well; well left out of scoring
Polr2b (polymerase (RNA) II (DNA directed) polypeptide B)	0.29	1.54	1.38	enough cells to score
Mmp2 (matrix metallopeptidase 2)	-0.8	1.16	1.25	enough cells to score
Megf6 (multiple EGF-like-domains 6)	-0.82	1.34	1.27	enough cells to score
Mrm2 (mitochondrial rRNA methyltransferase 2)		1.1	1.22	fewer than 50 cells per well; well left out of scoring
Igflr1 (IGF-like family receptor 1)	-1.73 (active)	1.42	1.32	enough cells to score
Stk3 (serine/threonine kinase 3)	-1.43	1.46	1.44	enough cells to score
Rbm38 (RNA binding motif protein 38)	-0.21	1.31	1.19	enough cells to score
Fmn1 (formin 1)	-1.23	1.39	1.43	enough cells to score
Slc60a1	-0.32	1.36	1.45	enough cells to score
Arhgap39 (Rho GTPase activating protein 39)	1.16	1.71	2.01	enough cells to score
Rlig1 (RNA 5'-phosphate and 3'-OH ligase 1)	-0.79	1.17	1.13	enough cells to score
Pnkp (polynucleotide kinase 3'- phosphatase)	-1.25	1.42	1.22	enough cells to score
Slc17a8		1.67	0	fewer than 50 cells per well; well left out of scoring
Ttc5 (tetratricopeptide repeat domain 5)	-1.51	1.2	1.05	enough cells to score
Ccnh (cyclin H)	-0.36	1.49	1.33	enough cells to score
Mak16 (MAK16 homolog)	2.29	1.46	2.01	enough cells to score
Mme (membrane metallo endopeptidase)	-0.24	1.37	1.35	enough cells to score
Itpkc (inositol 1,4,5-trisphosphate 3-kinase C)	-0.58	1.52	1.3	enough cells to score
Rnaset2b (ribonuclease T2B)	0.52	1.6	1.65	enough cells to score
Ccl4 (C-C motif chemokine ligand 4)		1.71	1.22	fewer than 50 cells per well; well left out of scoring
Cnnm3 (cyclin M3)	0.51	1.56	1.42	enough cells to score
Or10a5 (olfactory receptor family 10 subfamily A member 5)	-0.02	1.51	1.37	enough cells to score
